Data on 25 molecules can be found in EP4755878A1, “PHOTOCHROMIC COMPOUND, PHENOL DERIVATIVE, CURABLE COMPOSITION, OPTICAL ARTICLE, LENS, AND EYEGLASS” (TOKUYAMA CORPORATION, priority 2023, dated 2025).

Each structure is given as a SMILES string.

Holding throughout (settings): A35/A23 × 100, one value per compound
Series [1] can be described thus: Photochromic properties of photochromic laminate (plastic lens) made by coating method. The format is physicochemical. From the text: First, the photochromic compound obtained in Example 1 above, a photoinitiator, and polymerizable compounds were mixed to obtain a curable composition.
As the polymerizable compounds, a blend of the following radically-polymerizable monomers in combination was used.
• Polyethylene glycol dimethacrylate (average molecular weight: 736): 42 parts by mass • Polyethylene glycol dimethacrylate (average molecular weight: 536): 12 parts by mass • Trimethylolpropane trimethacrylate: 38 parts by mass • γ-Methacryloyloxypropyltrimethoxysilane: 2 parts by mass • Glycidyl methacrylate: 1 part by mass.
Note that in the curable composition, the photochromic compound obtained in Example 1 above was added to be 0.25 mmol taking the total amount of the radically-polymerizable monomers as 100 g. The following were used as additives.
(stabilizer, Irganox 245): 1 part by mass Bis(1,2,2,6,6-pentamethyl-4-piperidyl) sebacate: 3 parts by mass Leveling agent from DuPont Toray Specialty Materials K.K. (L7001): 0.1 parts by mass.
Note that the above-mentioned additives are described with blending ratios taking a total of the radically-polymerizable monomers as 100 parts by mass.
Using this curable composition, a photochromic laminate was obtained by a lamination process described below with the polymerization described below being carried out.
First, a thiourethane plastic lens with a center thickness of 2 mm and a refractive index of 1.60 was prepared as an optical substrate. Note that the thiourethane plastic lens had been alkaline-etched beforehand in a 10% aqueous sodium hydroxide solution at 50°C for 5 minutes, and then thoroughly washed with distilled water.
A spin coater (1H-DX2, manufactured by MIKASA CO., LTD) was used to coat a surface of the above-mentioned plastic lens with a moisture-curable primer (product name: TR-SC-P, manufactured by Tokuyama Corporation) at a rotation speed of 70 rpm for 15 seconds, followed by at 1000 rpm for 10 seconds. Then, about 2 g of the photochromic curable composition obtained as above was spin-coated at a rotation speed of 60 rpm for 40 seconds, followed by at 600 rpm for 10 to 20 seconds so as to achieve a photochromic coating layer with a film thickness of 40 µm.
The lens having the surface coated with the photochromic curable composition (photochromic coating layer) was irradiated with light for 90 seconds in a nitrogen gas atmosphere using a metal halide lamp with an output of 200 mW/cm^2 to cure the coating film. The coating was then further heated at 110°C for 1 hour to produce a photochromic laminate with a photochromic layer.
Photochromic laminates were produced using the photochromic compounds obtained in Examples 2 to 19 in the same manner as in Example 20.
Photochromic laminates were obtained in the same manner as in Example 20 using photochromic compounds represented by the following formulas (A) to (F). [drawing 143] [drawing 144] [drawing 145] [drawing 146] [drawing 147] [drawing 148] [drawing 149] [drawing 150]
The resulting photochromic laminates were evaluated by the methods described below.
Table 3 summarizes the results of Examples 20, 32, and 34, and Comparative Examples 1 to 6, and Table 4 summarizes the results of Examples 21 to 31, 33, and 35 to 38. The relationship between the fading half-life at 23°C and the color development ratio at the higher temperature of the photochromic laminates according to Examples and Comparative Examples are shown in a graph in FIG. 1.
Photochromic laminates were formed using the photochromic compound obtained in Examples 61 to 71 in the same manner as in Example 20.

A short description of series [2]: Photochromic properties of photochromic cured product made by kneading method. The format is physicochemical. From the text: First, the photochromic compound obtained in Example 1, additives, and polymerizable compounds were mixed to obtain a curable composition. As the polymerizable compounds, a blend of the following polymerizable monomers in combination was used. • 1,3-Bis(isocyanatomethyl)cyclohexane: 36.7 parts by mass Pentaerythritol tetrakis(3-mercaptopropionate): 39.4 parts by mass • Polyoxyethylene polyoxypropylene lauryl ether (WONDERSURF 140 from Aoki Oil Industrial Co., Ltd.): 17.4 parts by mass 1-Decanethiol: 2.8 parts by mass • RX-1 prepared according to the method described in Patent Document 12: 3.8 parts by mass Note that in the curable composition, the photochromic compound was added to be 0.106 mmol taking the total amount of the polymerizable monomers as 100 g.
The following additives were used. Dimethyltin dichloride: 0.05 parts by mass • Irganox 245 from BASF Japan Ltd.: 0.1 parts by mass • 2-Ethylhexyl 4-methoxycinnamate: 0.6 parts by mass
The prepared curable composition was sufficiently degassed, and then injected into a glass mold provided with a gap of 1 mm, and the curable composition was polymerized via casting polymerization. […] After the polymerization, the cured product was removed from the glass mold, to obtain photochromic cured product having a thickness of 1 mm. The resulting photochromic cured product was evaluated in the same manner as in Example 23.
(Examples 51 to 60, and Comparative Examples 11 to 14) Photochromic cured products were formed using the photochromic compound shown in Table 6 in the same manner as in Example 50.

Series [3] in a line: Photochromic properties of photochromic layer (binder sheet) made by binder method.

As to `COc1ccc(C2(c3ccc(OC)cc3)C=Cc3c4c(c5ccc(OC)cc5c3O2)-c2ccc(N(C)c3ccccc3)cc2C4(C)C)cc1` [Formula (1-7)], the “Color development ratio at high temperature” value (from here on “Color development ratio”) was found to be 76% in series [1], 77% in series [2] and 74% in series [3].

Turning to `COc1ccc(C2(c3ccc(OC)cc3)C=Cc3c4c(c5ccc(OC)cc5c3O2)-c2ccc(N(c3ccccc3)c3ccccc3)cc2C4(C)C)cc1` [Formula (15-2)], the “Color development ratio” value was found to be 73% in series [1], 75% in series [2] and 72% in series [3].

Regarding `COc1ccc2c3c(c4c(c2c1)OC(c1ccc(F)cc1)(c1ccc(N2CCOCC2)cc1)C=C4)C(CCC(F)(F)F)(CCC(F)(F)F)c1cc(N(C)c2ccc(C)cc2)ccc1-3` (centres unmarked) [Formula (14-3)], the “Color development ratio” value in series [1] is listed as 71%.

For `COCC1(COC)c2cc(N(C)c3ccccc3)ccc2-c2c1c1c(c3ccccc23)OC(c2ccc(OC)cc2)(c2ccc(OC)c(F)c2)C=C1` (centres unmarked) [Formula (16-3)], the “Color development ratio” value in series [1] came out at 68%; in series [2] it was 71%; in series [3], 68%.

As to `COc1ccc(C2(c3ccc(OC)cc3)C=Cc3c4c(c5ccc(OC)cc5c3O2)-c2ccc(N3CCOc5ccccc53)cc2C4(C)C)cc1` [Formula (13-2)], the “Color development ratio” value in series [1] is 73%; in series [2] it was 75%; in series [3], 71%.

Consider `CCCC1(CCC)c2cc(N3CCCc4ccccc43)ccc2-c2c1c1c(c3cc(OC)ccc23)OC(c2ccc(OC)cc2)(c2ccc(OCCCO)cc2)C=C1` (centres unmarked) [Formula (17-3)], for which the “Color development ratio” value in series [1] was found to be 73%.

`COc1ccc(C2(c3ccc(OC)cc3)C=Cc3c4c(c5ccc(OC)cc5c3O2)-c2ccc(OC(F)(F)F)cc2C4(C)C)cc1` [Formula(F), reference compound]: the “Color development ratio” value in series [1] was 60%.

As for `COc1ccc(C2(c3ccc(OC)cc3)C=Cc3c4c(c5ccc(Oc6ccccc6)cc5c3O2)-c2ccc(N(c3ccccc3)c3ccccc3)cc2C4(CCCCF)CCCCF)cc1` [Formula (8-2)], the entries for the “Color development ratio” value in series [1], in series [2] and in series [3] were 69%, 69% and 68%, respectively.

Regarding `COCCN(c1ccccc1)c1ccc2c(c1)C(CCOC)(CCOC)c1c3c(c4cc(C)c(N5CCOCC5)cc4c1-2)OC(c1ccc(OC)cc1)(c1ccc(OC)cc1)C=C3` [Formula (10-3)], in series [1], the “Color development ratio” value came out at 67%.

In the case of `CCCCOCCC1(CCOCCCC)c2cc(N(c3ccccc3)c3ccc(C)cc3)ccc2-c2c1c1c(c3cc(OC)c(OC)cc23)OC(c2ccc(OC)cc2)(c2ccc(N3CCOCC3)cc2)C=C1` (centres unmarked) [Formula (68-2)], the “Color development ratio” value in series [1] is 65%.

In the case of `CCCOc1ccc(C2(c3ccc(OCCC)cc3)C=Cc3c4c(c5cc(N(C)c6ccccc6)c(OC)cc5c3O2)-c2ccc(N(C)c3ccccc3)cc2C4(CCC)CCC)cc1` [Formula (61-4)], the “Color development ratio” value in series [1] was found to be 75%.

With `COc1ccc(C2(c3ccc(OC)cc3)C=Cc3c4c(c5ccc(OC)cc5c3O2)-c2ccc(Oc3ccccc3)cc2C4(C)C)cc1` [Formula(E), reference compound], in series [1], the “Color development ratio” value worked out at 65%.

`CCC1(CC)c2cc(N3CCOc4ccccc43)ccc2-c2c1c1c(c3cc(OC)ccc23)OC(c2ccc(OCCOC(=O)CCCCCCCCC(=O)OCCOc3ccc(C4(c5ccc(N6CCOCC6)cc5)C=Cc5c6c(c7ccc(OC)cc7c5O4)-c4ccc(N5CCOc7ccccc75)cc4C6(CC)CC)cc3)cc2)(c2ccc(N3CCOCC3)cc2)C=C1` (centres unmarked) [Formula (19-3)]: the “Color development ratio” value in series [1] was 64%.

For the molecule `CCCCOc1ccc(C2(c3ccc(OC)cc3)C=Cc3c4c(c5cc(-c6ccc(C(F)(F)F)cc6)c(OC)cc5c3O2)-c2ccc(N(C)c3ccccc3)cc2C4(CCC)CCC)cc1` (centres unmarked) [Formula (63-2)], the “Color development ratio” value in series [1] is reported as 70%.

Take `CCCCOCCC1(CCOCCCC)c2cc(N(c3ccccc3)c3ccccc3)ccc2-c2c1c1c(c3cc(OC)c(N(C)c4ccc(C(F)(F)F)cc4)cc23)OC(c2ccc(OC)cc2)(c2ccc(OCCC)cc2)C=C1` (centres unmarked) [Formula (65-2)]: the “Color development ratio” value in series [1] is reported as 67%.

Regarding `CCCCCCC1(CCCCCC)c2cc(N(c3ccccc3)c3ccccc3)ccc2-c2c1c1c(c3cc(OC)c(-c4ccccc4N4CCOCC4)cc23)OC(c2ccc(OC)cc2)(c2ccc(OC)c(F)c2)C=C1` (centres unmarked) [Formula (70-4)], in series [1], the “Color development ratio” value turned out to be 81%.

In the case of `CCCCCCOc1ccc(C2(c3ccc(OCCCCCC)cc3)C=Cc3c4c(c5cc(N6CCC(C(F)(F)F)CC6)c(OC)cc5c3O2)-c2ccc(N(c3ccccc3)c3ccccc3)cc2C42CCC3(CCCCC3)CC2)cc1` [Formula (64-3)], the “Color development ratio” value in series [1] was found to be 71%.

Consider `CCC1(CC)c2cc(N(C)c3ccccc3)ccc2-c2c1c1c(c3cc(OC)c(-c4ccc(OC)cc4OC)cc23)OC(c2ccc(OC)cc2)(c2ccc(N3CCOCC3)cc2)C=C1` (centres unmarked) [Formula (67-2)], for which the “Color development ratio” value in series [1] is listed as 71%.

Regarding `CCCCCC1(CCCCC)c2cc(N3CCOc4ccccc43)ccc2-c2c1c1c(c3cc(OC)c(-c4ccc(N5CCOc6ccccc65)cc4)cc23)OC(c2ccc(OC)cc2)(c2ccc(OC)cc2)C=C1` [Formula (66-5)], the “Color development ratio” value in series [1] amounted to 80%.

For the molecule `CCCCCCOc1ccc(C2(c3ccc(OCCCCCC)cc3)C=Cc3c4c(c5ccc(OC(F)(F)F)cc5c3O2)-c2ccc(N(C)c3ccc(C(F)(F)F)cc3)cc2C42CCC(CC)(CC)CC2)cc1` [Formula (6-3)], the “Color development ratio” value in series [1] was found to be 59%.

In the case of `COCCOCCOCCC1(CCOCCOCCOC)c2cc(N(c3ccccc3)c3ccccc3)ccc2-c2c1c1c(c3cc(OC)c(-c4c(OC)cc(OC)cc4OC)cc23)OC(c2ccc(OC)cc2)(c2ccc(OC)cc2)C=C1` [Formula (62-5)], the “Color development ratio” value in series [1] came to 73%.

As for `COc1ccc(C2(c3ccc(N4CCOCC4)cc3)C=Cc3c4c(c5cc(Sc6c(C)cccc6C)c(OC)cc5c3O2)-c2ccc(N3CCOc5cc(F)ccc53)cc2C42CC(C)(C)CC(C)(C)C2)cc1` (centres unmarked) [Formula (11-4)], the “Color development ratio” value in series [1] came out at 59%.

As for `CCCOc1ccc(C2(c3ccc(OCCC)cc3)C=Cc3c4c(c5ccc(-c6ccc(OC)cc6OC)cc5c3O2)-c2ccc(N(C)c3ccc(F)cc3)cc2C4(CC)CC)cc1` [Formula (5-4)], the “Color development ratio” value in series [1] is 75%.

With `COCCCC1(CCCOC)c2cc(N(c3ccccc3)c3ccccc3)ccc2-c2c1c1c(c3cc(OC)c(N4CCOCC4)cc23)OC(c2ccc(C)cc2)(c2ccc(N(C)c3ccccc3)cc2)C=C1` (centres unmarked) [Formula (69-2)], in series [1], the “Color development ratio” value is given as 75%.

As for `CCCC1(CCC)c2cc(N(C)c3ccccc3)ccc2-c2c1c1c(c3cc(OC)c(-c4ccc(N5CC(C)OC(C)C5)cc4)cc23)OC(c2ccc(N3CCOCC3)cc2)(c2ccc(OC)c(OC)c2)C=C1` (centres unmarked) [Formula (71-5)], the “Color development ratio” value in series [1] is given as 82%.
